Experimental data as given in PubChem BioAssay AID330 (DTP/NCI, 2004).
The list does not hold the whole screen: it gathers tests that were run many times, whatever their T/C, doses with no T/C, and many T/C values between a quarter and a half above the control. Other doses and runs of a compound stand elsewhere. T/C gives the treated animals as a percentage of the vehicle group. Some doses have a count of surviving animals in place of a T/C: the source files T/C as zero there, which appears to mark a toxic dose or a test without result, not a measured value. Some survivor counts are full or nearly so, which does not show that the dose was tolerated: survival well below the control is almost never listed, so the zero probably covers shortened survival too. Counts of survivors are from the toxicity check (mostly the fifth day) where no day follows; animals may have died later. Schedules are NCI's codes, read here as Q, the interval in days (D) or hours (H), X, the number of doses. Some doses were run more than once; their values stand side by side, smallest first. Where survival is the endpoint, this PubChem deposit counts one and a half times the control or more as active, and values a quarter to a half above the control carry no call in these data; other NCI protocols may use other cut-offs. Some T/C values carry the count of animals alive at the toxicity check (mostly the fifth day); where none is given, no animal had died by that day.

Test system: P388 leukemia ip, CD2F1 mice, survival T/C
Experiment: NCI In Vivo Anticancer Drug Screen. Data for tumor model P388 Leukemia (intraperitoneal) in CD2F1 (CDF1) mice
Conditions: T/C endpoint: median survival time, higher T/C = longer survival
[1] = dose: 200.0 mg/kg/injection, schedule: Q01DX009 (ip), vehicle: saline with Tween-80
[2] = dose: 200.0 mg/kg/injection, schedule: Q01DX005 (ip), vehicle: saline
[3] = dose: 120.0 mg/kg/injection, schedule: Q01DX005 (ip), vehicle: Klucel (hydroxypropylcellulose) (HPC)
[4] = dose: 240.0 mg/kg/injection, schedule: Q01DX005 (ip), vehicle: Klucel (hydroxypropylcellulose) (HPC)
[5] = dose: 200.0 mg/kg/injection, schedule: Q01DX005 (ip), vehicle: saline with Tween-80
[6] = dose: 50.0 mg/kg/injection, schedule: Q01DX009 (ip), vehicle: saline with Tween-80
[7] = dose: 100.0 mg/kg/injection, schedule: Q01DX009 (ip), vehicle: saline with Tween-80
[8] = dose: 6.25 mg/kg/injection, schedule: Q01DX009 (ip), vehicle: saline
[9] = dose: 0.1 mg/kg/injection, schedule: Q01DX009 (ip), vehicle: suspension in saline
[10] = dose: 0.4 mg/kg/injection, schedule: Q01DX009 (ip), vehicle: saline

How did the T/C (dose: 12.5 mg/kg/injection, schedule: Q04DX003 (ip), vehicle: saline with Tween-80) turn out when CS(=O)(=O)OCCN(CCOS(C)(=O)=O)c1ccc(/C=N/Nc2ncnc3nc[nH]c23)cc1 was run?
The T/C was 127 % of control.

What about the T/C (dose: 25.0 mg/kg/injection, schedule: Q04DX003 (ip), vehicle: saline with Tween-80) of the same compound?
Its T/C is 127 % of control.

What about the T/C (dose: 50.0 mg/kg/injection, schedule: Q04DX003 (ip), vehicle: saline with Tween-80) of the same compound?
Its T/C is 140 % of control.

And the survivor count [1]?
Its survivor count is 6 of 6.

With COc1ccc(C=C(C(=O)CCN(C)C)C(=O)CCN(C)C)cc1 as the compound, how does the survivor count [2] read?
Its survivor count is 2 of 5.

What does the source list for O=C1C(N=Nc2ccc([N+](=O)[O-])cc2)Sc2nc3ccccc3n21 (centres undefined)?
survivor count (dose: 60.0 mg/kg/injection, schedule: Q01DX005 (ip), vehicle: Klucel (hydroxypropylcellulose) (HPC)): 6 of 6; survivor count [3]: 5 of 6; survivor count [4]: 6 of 6

What does the source list for C/C(=N\NC(=S)N1CCCCCC1)c1nccs1?
survivor count (dose: 50.0 mg/kg/injection, schedule: Q01DX005 (ip), vehicle: saline with Tween-80): 2 of 6; survivor count (dose: 100.0 mg/kg/injection, schedule: Q01DX005 (ip), vehicle: saline with Tween-80): 3 of 6; survivor count [5]: 0 of 6

COc1ccc2c(c1O)C13CCN(C)[C@@H](C2)C12CC2/C(=N/O)[C@H]3OC(C)=O (some centres undefined) was tested. Which survivor count (dose: 200.0 mg/kg/injection, schedule: Q01DX005 (ip), vehicle: Klucel (hydroxypropylcellulose) (HPC)) did it give?
Its survivor count is 2 of 6.

c1ccc(-c2csc3nc(N4CCCCC4)cn23)cc1 was tested. Which survivor count (dose: 400.0 mg/kg/injection, schedule: Q04DX003 (ip), vehicle: saline + Tween-80 + alcohol) did it give?
The survivor count was 3 of 6.

CC(C)CCCCCCCCCCCCC(=O)NCCC(=O)NC1C(CO)OC(Nc2ncnc3nc[nH]c23)C(O)C1O (centres undefined) was tested. Which T/C (dose: 3.12 mg/kg/injection, schedule: Q01DX009 (ip), vehicle: other) did it give?
Its T/C is 131 % of control.

And the T/C (dose: 3.13 mg/kg/injection, schedule: Q01DX009 (ip), vehicle: other)?
Its T/C is 127 % of control.

What about the survivor count (dose: 12.5 mg/kg/injection, schedule: Q01DX009 (ip), vehicle: other) of the same compound?
Its survivor count is 6 of 6.

And the survivor count (dose: 25.0 mg/kg/injection, schedule: Q01DX009 (ip), vehicle: other)?
The survivor count was 6 of 6.

What about the survivor count (dose: 50.0 mg/kg/injection, schedule: Q01DX009 (ip), vehicle: other) of the same compound?
The survivor count was 5 of 6.

For O=NNc1nccs1, which survivor count (dose: 25.0 mg/kg/injection, schedule: Q01DX009 (ip), vehicle: water) is on record?
The survivor count was 0 of 6.

For CC(C)OSc1ccccc1, which T/C (dose: 25.0 mg/kg/injection, schedule: Q01DX001 (ip), vehicle: Klucel (hydroxypropylcellulose) (HPC)) is on record?
The T/C was 129 % of control.

What about the T/C (dose: 50.0 mg/kg/injection, schedule: Q01DX001 (ip), vehicle: Klucel (hydroxypropylcellulose) (HPC)) of the same compound?
The T/C was 125 % of control [5 of 6 alive].

And the survivor count (dose: 200.0 mg/kg/injection, schedule: Q01DX001 (ip), vehicle: Klucel (hydroxypropylcellulose) (HPC))?
Its survivor count is 1 of 6.

What about the survivor count (dose: 400.0 mg/kg/injection, schedule: Q01DX001 (ip), vehicle: Klucel (hydroxypropylcellulose) (HPC)) of the same compound?
The survivor count was 0 of 6.

What does the source list for CCCOc1ccc(-c2nc(-c3ccc(N=Cc4ccc(N(CCOS(C)(=O)=O)CCOS(C)(=O)=O)cc4C)cc3)cs2)cc1?
T/C (dose: 1.56 mg/kg/injection, schedule: Q01DX009 (ip), vehicle: saline with Tween-80): 138 % of control [5 of 6 alive]; T/C (dose: 25.0 mg/kg/injection, schedule: Q01DX009 (ip), vehicle: saline with Tween-80): 143 % of control; survivor count [6]: 6 of 6; survivor count [7]: 6 of 6; survivor count [1]: 6 of 6

With CC(C)OC(=O)Nc1ccc2nc(-c3cscn3)[nH]c2c1 as the compound, how does the T/C [5] read?
The T/C was 133 % of control.

How did the T/C [8] turn out when CCCCCCCCCCCCCCCCCC[N+]1(CC)CCOCC1 was run?
The T/C was 87 [5 of 6 alive], 89, 138 % of control.

And the survivor count [8]?
The survivor count was 6 of 6.

And the survivor count (dose: 12.5 mg/kg/injection, schedule: Q01DX009 (ip), vehicle: saline)?
Its survivor count is 6 of 6.

And the survivor count (dose: 50.0 mg/kg/injection, schedule: Q01DX009 (ip), vehicle: saline)?
The survivor count was 1 of 6.

What about the survivor count (dose: 100.0 mg/kg/injection, schedule: Q01DX009 (ip), vehicle: saline) of the same compound?
Its survivor count is 0 of 6.

And the survivor count (dose: 200.0 mg/kg/injection, schedule: Q01DX009 (ip), vehicle: saline)?
The survivor count was 0 of 6.

With COc1ccc(/C(=N/N)c2ccccc2)cc1 as the compound, how does the survivor count (dose: 400.0 mg/kg/injection, schedule: Q04DX003 (ip), vehicle: Klucel (hydroxypropylcellulose) (HPC)) read?
Its survivor count is 0 of 6.

Which results are given for COCC[P+](c1ccccc1)(c1ccccc1)c1ccccc1?
survivor count (dose: 0.78 mg/kg/injection, schedule: Q01DX009 (ip), vehicle: water): 6 of 6; T/C (dose: 12.5 mg/kg/injection, schedule: Q01DX009 (ip), vehicle: water): 131 % of control

CC(/C=N/Nc1ccccc1)=N\N=c1/scc(-c2ccc(Br)cc2)n1-c1ccc(C)cc1 was tested. Which survivor count (dose: 200.0 mg/kg/injection, schedule: Q01DX001 (ip), vehicle: saline with Tween-80) did it give?
The survivor count was 6 of 6.

Which results are given for Cc1cccc2nccn12?
survivor count [6]: 6 of 6; survivor count [7]: 0 of 6; survivor count [1]: 0 of 6

What does the source list for Nc1ncnc2c1ncn2C1OC(CO)CC1O (centres undefined)?
T/C (dose: 37.5 mg/kg/injection, schedule: Q01DX009 (ip), vehicle: Klucel (hydroxypropylcellulose) (HPC)): 131 % of control; T/C (dose: 75.0 mg/kg/injection, schedule: Q01DX009 (ip), vehicle: Klucel (hydroxypropylcellulose) (HPC)): 130 % of control [5 of 6 alive]; survivor count (dose: 150.0 mg/kg/injection, schedule: Q01DX009 (ip), vehicle: Klucel (hydroxypropylcellulose) (HPC)): 3 of 6 and 5 of 6; survivor count (dose: 300.0 mg/kg/injection, schedule: Q01DX009 (ip), vehicle: Klucel (hydroxypropylcellulose) (HPC)): 0 of 6

Which survivor count [2] does the source give for CCCCCN(CCCCC)CC(C)(O)CNc1cc(OC)cc2cccnc12 (centres undefined) here?
The survivor count was 0 of 5.

CC(C)N(c1ccnc(F)n1)C(C)C was tested. Which survivor count [3] did it give?
The survivor count was 3 of 6.

What about the survivor count [4] of the same compound?
The survivor count was 0 of 6.

CNC(=O)/C=C/C1=CN2C(=O)c3ccc(C)c(O)c3NC(OC)C2C1 (centres undefined) was tested. Which survivor count (dose: 0.02 mg/kg/injection, schedule: Q01DX009 (ip), vehicle: suspension in saline) did it give?
The survivor count was 6 of 6.

And the T/C (dose: 0.05 mg/kg/injection, schedule: Q01DX009 (ip), vehicle: saline)?
The T/C was 144 % of control.

What about the survivor count (dose: 0.05 mg/kg/injection, schedule: Q01DX009 (ip), vehicle: suspension in saline) of the same compound?
The survivor count was 3 of 6.

What about the T/C (dose: 0.1 mg/kg/injection, schedule: Q01DX009 (ip), vehicle: saline, evaluated on day 20) of the same compound?
The T/C was 144 % of control.

What about the T/C (dose: 0.1 mg/kg/injection, schedule: Q01DX009 (ip), vehicle: saline, evaluated on day 23) of the same compound?
The T/C was 128 % of control.

And the T/C [9]?
The T/C was 125 % of control.

What about the survivor count [9] of the same compound?
The survivor count was 0 of 6.

And the T/C (dose: 0.2 mg/kg/injection, schedule: Q01DX009 (ip), vehicle: saline)?
Its T/C is 138 % of control.

What about the survivor count (dose: 0.2 mg/kg/injection, schedule: Q01DX009 (ip), vehicle: suspension in saline) of the same compound?
Its survivor count is 0 of 6.

And the T/C [10]?
The T/C was 137 % of control.

What about the survivor count [10] of the same compound?
The survivor count was 5 of 5.

What about the survivor count (dose: 0.4 mg/kg/injection, schedule: Q01DX009 (ip), vehicle: suspension in saline) of the same compound?
Its survivor count is 0 of 6 and 5 of 6.

What about the survivor count (dose: 0.8 mg/kg/injection, schedule: Q01DX009 (ip), vehicle: saline) of the same compound?
The survivor count was 0 of 5 and 6 of 6.

And the survivor count (dose: 0.8 mg/kg/injection, schedule: Q01DX009 (ip), vehicle: suspension in saline)?
Its survivor count is 0 of 6 and 5 of 6.

C[N+](C)(C[Si](C)(C)C)C1CCCCCCCCCCC1 was tested. Which survivor count (dose: 30.0 mg/kg/injection, schedule: Q01DX005 (ip), vehicle: saline with Tween-80) did it give?
The survivor count was 0 of 6.

And the survivor count (dose: 60.0 mg/kg/injection, schedule: Q01DX005 (ip), vehicle: saline with Tween-80)?
Its survivor count is 0 of 6.

And the survivor count (dose: 120.0 mg/kg/injection, schedule: Q01DX005 (ip), vehicle: saline with Tween-80)?
The survivor count was 0 of 6.

And the survivor count (dose: 240.0 mg/kg/injection, schedule: Q01DX005 (ip), vehicle: saline with Tween-80)?
The survivor count was 0 of 6.

Which results are given for CC1(C)CC(=O)C=C(OS(=O)(=O)C(F)(F)F)C1?
survivor count (dose: 100.0 mg/kg/injection, schedule: Q01DX009 (ip), vehicle: distilled water + Tween-80): 4 of 6; survivor count (dose: 200.0 mg/kg/injection, schedule: Q01DX009 (ip), vehicle: distilled water + Tween-80): 0 of 6
